{"sequences": {"note": "The chains behind the UniProt entries cited, without tags or fusion partners.", "UniProt Q13616": "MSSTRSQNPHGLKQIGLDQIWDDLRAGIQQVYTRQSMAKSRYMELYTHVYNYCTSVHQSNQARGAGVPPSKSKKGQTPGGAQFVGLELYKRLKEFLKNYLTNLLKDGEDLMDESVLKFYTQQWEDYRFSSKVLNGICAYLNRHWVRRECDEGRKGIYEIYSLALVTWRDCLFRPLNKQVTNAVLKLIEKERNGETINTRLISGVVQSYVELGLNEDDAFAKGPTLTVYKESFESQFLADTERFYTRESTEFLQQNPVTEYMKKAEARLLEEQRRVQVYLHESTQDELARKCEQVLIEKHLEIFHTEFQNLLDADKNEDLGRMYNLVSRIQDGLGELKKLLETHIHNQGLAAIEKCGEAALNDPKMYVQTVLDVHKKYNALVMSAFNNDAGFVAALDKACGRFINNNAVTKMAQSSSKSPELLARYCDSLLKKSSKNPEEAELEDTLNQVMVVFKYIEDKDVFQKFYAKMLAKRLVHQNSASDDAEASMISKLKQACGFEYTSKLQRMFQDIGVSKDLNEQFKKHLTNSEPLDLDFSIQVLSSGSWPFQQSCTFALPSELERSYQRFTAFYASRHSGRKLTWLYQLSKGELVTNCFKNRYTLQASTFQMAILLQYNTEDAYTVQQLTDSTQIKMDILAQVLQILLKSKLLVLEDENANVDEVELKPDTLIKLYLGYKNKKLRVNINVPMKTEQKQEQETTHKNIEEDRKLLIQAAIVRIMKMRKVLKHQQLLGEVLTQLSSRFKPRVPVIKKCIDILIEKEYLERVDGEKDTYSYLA"}, "source": "paper PMC10576442", "binders": {"B1": {"name": "F-box protein 11 (FBXO11) (protein, UniProt Q86XK2 1-927)", "chain": "MNSVRAANRRPRRVSRPRPVQQQQQQPPQQPPPQPPQQQPPQQQPPPPPQQQQQQQPPPPPPPPPPLPQERNNVGERDDDVPADMVAEESGPGAQNSPYQLRRKTLLPKRTACPTKNSMEGASTSTTENFGHRAKRARVSGKSQDLSAAPAEQYLQEKLPDEVVLKIFSYLLEQDLCRAACVCKRFSELANDPILWKRLYMEVFEYTRPMMHPEPGKFYQINPEEYEHPNPWKESFQQLYKGAHVKPGFAEHFYSNPARYKGRENMLYYDTIEDALGGVQEAHFDGLIFVHSGIYTDEWIYIESPITMIGAAPGKVADKVIIENTRDSTFVFMEGSEDAYVGYMTIRFNPDDKSAQHHNAHHCLEITVNCSPIIDHCIIRSTCTVGSAVCVSGQGACPTIKHCNISDCENVGLYITDHAQGIYEDNEISNNALAGIWVKNHGNPIIRRNHIHHGRDVGVFTFDHGMGYFESCNIHRNRIAGFEVKAYANPTVVRCEIHHGQTGGIYVHEKGRGQFIENKIYANNFAGVWITSNSDPTIRGNSIFNGNQGGVYIFGDGRGLIEGNDIYGNALAGIQIRTNSCPIVRHNKIHDGQHGGIYVHEKGQGVIEENEVYSNTLAGVWVTTGSTPVLRRNRIHSGKQVGVYFYDNGHGVLEDNDIYNHMYSGVQIRTGSNPKIRRNKIWGGQNGGILVYNSGLGCIEDNEIFDNAMAGVWIKTDSNPTLRRNKIHDGRDGGICIFNGGRGLLEENDIFRNAQAGVLISTNSHPILRKNRIFDGFAAGIEITNHATATLEGNQIFNNRFGGLFLASGVNVTMKDNKIMNNQDAIEKAVSRGQCLYKISSYTSYPMHDFYRCHTCNTTDRNAICVNCIKKCHQGHDVEFIRHDRFFCDCGAGTLSNPCTLAGEPTHDTDTLYDSAPPIESNTLQHN"}}, "target": "Cullin-1 (CUL1) (UniProt Q13616)", "assay": "affinity purification with mass spectrometry; immunoprecipitation with CUL1 antibody from control and CAND1 knock-down cells, relative quantitative MS of F-box proteins (Figure 4G, Table S2)", "note": "No constants are given. Whether binding was seen depends on the method and setting. In cells and extracts the contact can be indirect. A yes stands for co-enrichment or nearness to the bait. Other partners may have been found.", "data": [{"binder": "B1", "values": [{"measurement": "binding", "result": "binds"}]}]}
